Our source for the binding values is publication PMC3776929.

Chains of the proteins cited; added tags and fusions are not shown.
UniProt Q05471: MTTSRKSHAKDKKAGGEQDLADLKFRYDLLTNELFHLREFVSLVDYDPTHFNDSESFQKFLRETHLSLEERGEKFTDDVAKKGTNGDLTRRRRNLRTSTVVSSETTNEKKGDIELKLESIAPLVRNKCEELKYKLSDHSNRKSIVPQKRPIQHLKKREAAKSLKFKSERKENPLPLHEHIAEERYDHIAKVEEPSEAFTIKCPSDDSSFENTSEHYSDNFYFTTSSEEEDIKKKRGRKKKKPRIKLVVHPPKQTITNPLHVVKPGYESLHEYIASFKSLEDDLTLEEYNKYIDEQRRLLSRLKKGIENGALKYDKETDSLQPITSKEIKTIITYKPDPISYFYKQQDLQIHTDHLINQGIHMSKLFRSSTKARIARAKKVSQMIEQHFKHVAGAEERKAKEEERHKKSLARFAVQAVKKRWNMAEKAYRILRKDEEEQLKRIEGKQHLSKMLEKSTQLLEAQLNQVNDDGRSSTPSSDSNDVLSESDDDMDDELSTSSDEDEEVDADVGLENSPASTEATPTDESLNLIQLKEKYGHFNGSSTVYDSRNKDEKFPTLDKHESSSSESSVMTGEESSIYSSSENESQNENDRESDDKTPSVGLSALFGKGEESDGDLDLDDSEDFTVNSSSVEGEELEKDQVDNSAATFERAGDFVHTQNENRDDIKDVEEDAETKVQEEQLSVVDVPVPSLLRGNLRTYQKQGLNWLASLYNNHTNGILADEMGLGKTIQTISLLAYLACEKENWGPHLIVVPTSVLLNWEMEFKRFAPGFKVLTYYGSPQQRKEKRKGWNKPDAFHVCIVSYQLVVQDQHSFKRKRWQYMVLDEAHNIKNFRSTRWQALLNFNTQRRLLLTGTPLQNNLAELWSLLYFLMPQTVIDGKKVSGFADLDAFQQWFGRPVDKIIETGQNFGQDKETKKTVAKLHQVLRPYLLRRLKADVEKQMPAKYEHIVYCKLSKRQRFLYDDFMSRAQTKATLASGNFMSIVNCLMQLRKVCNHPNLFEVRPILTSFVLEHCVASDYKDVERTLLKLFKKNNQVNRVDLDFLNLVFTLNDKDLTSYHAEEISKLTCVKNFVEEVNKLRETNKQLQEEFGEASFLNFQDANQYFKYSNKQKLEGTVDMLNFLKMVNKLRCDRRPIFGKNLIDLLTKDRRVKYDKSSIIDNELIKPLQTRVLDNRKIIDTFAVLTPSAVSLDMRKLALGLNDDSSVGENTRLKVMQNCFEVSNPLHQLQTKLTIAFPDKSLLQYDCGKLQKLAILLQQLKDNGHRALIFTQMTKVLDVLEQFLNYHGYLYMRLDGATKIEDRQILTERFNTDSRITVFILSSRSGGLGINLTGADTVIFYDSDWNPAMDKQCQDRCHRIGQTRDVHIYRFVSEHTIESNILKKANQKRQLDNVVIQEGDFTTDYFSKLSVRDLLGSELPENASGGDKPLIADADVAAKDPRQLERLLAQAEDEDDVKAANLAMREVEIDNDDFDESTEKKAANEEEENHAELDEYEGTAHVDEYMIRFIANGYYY
UniProt Q03388: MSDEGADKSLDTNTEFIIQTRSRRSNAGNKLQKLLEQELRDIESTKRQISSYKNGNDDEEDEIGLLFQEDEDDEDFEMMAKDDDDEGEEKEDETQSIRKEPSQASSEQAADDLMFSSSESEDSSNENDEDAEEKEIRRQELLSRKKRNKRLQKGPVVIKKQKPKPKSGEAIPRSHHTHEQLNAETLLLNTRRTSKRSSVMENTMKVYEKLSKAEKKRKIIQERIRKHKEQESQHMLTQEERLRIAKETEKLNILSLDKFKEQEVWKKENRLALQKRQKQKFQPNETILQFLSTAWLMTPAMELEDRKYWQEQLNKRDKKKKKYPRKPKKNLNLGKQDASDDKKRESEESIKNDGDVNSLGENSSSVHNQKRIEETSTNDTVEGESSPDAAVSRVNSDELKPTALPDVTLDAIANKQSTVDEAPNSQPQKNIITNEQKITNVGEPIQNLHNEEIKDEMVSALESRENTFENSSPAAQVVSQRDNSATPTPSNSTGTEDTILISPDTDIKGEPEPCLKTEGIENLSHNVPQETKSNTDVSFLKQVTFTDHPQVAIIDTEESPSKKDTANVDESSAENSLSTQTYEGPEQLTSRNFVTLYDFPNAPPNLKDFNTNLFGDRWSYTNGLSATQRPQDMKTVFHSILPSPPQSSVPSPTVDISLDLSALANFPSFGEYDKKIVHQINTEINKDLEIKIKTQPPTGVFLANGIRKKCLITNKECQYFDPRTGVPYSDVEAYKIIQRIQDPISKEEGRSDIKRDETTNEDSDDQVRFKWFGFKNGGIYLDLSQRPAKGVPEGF
UniProt Q06707: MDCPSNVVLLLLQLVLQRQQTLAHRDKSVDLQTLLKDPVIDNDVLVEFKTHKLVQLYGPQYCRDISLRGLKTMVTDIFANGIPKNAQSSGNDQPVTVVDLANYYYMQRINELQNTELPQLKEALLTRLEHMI
UniProt Q03433: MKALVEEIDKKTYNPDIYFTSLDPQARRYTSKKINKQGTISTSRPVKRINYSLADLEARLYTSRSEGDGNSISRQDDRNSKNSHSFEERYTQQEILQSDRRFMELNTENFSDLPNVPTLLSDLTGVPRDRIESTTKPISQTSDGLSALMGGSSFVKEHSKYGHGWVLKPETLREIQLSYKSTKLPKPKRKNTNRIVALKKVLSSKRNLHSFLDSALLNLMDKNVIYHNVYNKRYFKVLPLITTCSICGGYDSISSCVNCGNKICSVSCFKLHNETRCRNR
UniProt Q12509: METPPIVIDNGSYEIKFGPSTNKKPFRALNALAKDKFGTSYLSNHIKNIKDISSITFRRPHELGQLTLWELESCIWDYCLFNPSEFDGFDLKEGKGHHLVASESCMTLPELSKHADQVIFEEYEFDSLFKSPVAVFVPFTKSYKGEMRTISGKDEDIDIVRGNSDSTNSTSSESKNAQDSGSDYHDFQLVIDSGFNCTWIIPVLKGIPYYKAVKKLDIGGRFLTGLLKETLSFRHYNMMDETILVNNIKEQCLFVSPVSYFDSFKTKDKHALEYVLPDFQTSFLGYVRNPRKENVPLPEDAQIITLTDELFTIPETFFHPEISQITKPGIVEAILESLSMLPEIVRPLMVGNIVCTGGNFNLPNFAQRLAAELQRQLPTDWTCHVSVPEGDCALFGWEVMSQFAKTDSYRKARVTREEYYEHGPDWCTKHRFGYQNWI

No constants are given. Whether binding was seen depends on the method and setting. Binding seen in cells or lysates may run through a third protein. Some results given as binding are weak or reduced against the parent protein; the word gives no strength.

The test has as its target Swr1, FLAG-tagged catalytic subunit of the SWR1 complex (S. cerevisiae) (UniProt Q05471). Kind of test: co-IP; FLAG affinity purification of SWR1 (or a subcomplex) from S. cerevisiae, eluted with 3× FLAG peptide; SDS-PAGE (4%-12% Bis-Tris), Coomassie or SYPRO Orange stain; band intensities normalised for protein size for the stoichiometry.
As for Swc2 (from UniProt Q03388 1-795), the binding entry is given as “binds”.
The same measure for Swc7 (from UniProt Q06707 1-132): “binds”.
The same measure for Swc6 (from UniProt Q03433 1-280): “binds”; for Act1 (from UniProt P60010 1-375): “binds”; for Arp6 (from UniProt Q12509 1-438): “binds”.
